{"source": "paper doi:10.1101/2024.05.22.595265", "biological_target": "Fbxw7-Skp1 complex (UniProt Q969H0)", "assay": "SEC", "note": "Results are given in words; binding and its absence hold for the method and conditions named.", "data": [{"substance": "N-myc transactivation domain, N-myc 1-137 (from UniProt P04198 1-137) (domain or fragment)", "values": [{"measurement": "binding", "value": "no binding"}]}]}
